Paper doi:10.1101/2022.05.13.491857
No constants are given. Whether binding was seen depends on the method and setting. In cells and extracts the contact can be indirect. Some results given as binding are weak or reduced against the parent protein; the word gives no strength.

Chains of the proteins cited; added tags and fusions are not shown. Lines headed by an entry give the natural chain unless they say otherwise; changes in a name come on top.
UniProt Q7TMB8: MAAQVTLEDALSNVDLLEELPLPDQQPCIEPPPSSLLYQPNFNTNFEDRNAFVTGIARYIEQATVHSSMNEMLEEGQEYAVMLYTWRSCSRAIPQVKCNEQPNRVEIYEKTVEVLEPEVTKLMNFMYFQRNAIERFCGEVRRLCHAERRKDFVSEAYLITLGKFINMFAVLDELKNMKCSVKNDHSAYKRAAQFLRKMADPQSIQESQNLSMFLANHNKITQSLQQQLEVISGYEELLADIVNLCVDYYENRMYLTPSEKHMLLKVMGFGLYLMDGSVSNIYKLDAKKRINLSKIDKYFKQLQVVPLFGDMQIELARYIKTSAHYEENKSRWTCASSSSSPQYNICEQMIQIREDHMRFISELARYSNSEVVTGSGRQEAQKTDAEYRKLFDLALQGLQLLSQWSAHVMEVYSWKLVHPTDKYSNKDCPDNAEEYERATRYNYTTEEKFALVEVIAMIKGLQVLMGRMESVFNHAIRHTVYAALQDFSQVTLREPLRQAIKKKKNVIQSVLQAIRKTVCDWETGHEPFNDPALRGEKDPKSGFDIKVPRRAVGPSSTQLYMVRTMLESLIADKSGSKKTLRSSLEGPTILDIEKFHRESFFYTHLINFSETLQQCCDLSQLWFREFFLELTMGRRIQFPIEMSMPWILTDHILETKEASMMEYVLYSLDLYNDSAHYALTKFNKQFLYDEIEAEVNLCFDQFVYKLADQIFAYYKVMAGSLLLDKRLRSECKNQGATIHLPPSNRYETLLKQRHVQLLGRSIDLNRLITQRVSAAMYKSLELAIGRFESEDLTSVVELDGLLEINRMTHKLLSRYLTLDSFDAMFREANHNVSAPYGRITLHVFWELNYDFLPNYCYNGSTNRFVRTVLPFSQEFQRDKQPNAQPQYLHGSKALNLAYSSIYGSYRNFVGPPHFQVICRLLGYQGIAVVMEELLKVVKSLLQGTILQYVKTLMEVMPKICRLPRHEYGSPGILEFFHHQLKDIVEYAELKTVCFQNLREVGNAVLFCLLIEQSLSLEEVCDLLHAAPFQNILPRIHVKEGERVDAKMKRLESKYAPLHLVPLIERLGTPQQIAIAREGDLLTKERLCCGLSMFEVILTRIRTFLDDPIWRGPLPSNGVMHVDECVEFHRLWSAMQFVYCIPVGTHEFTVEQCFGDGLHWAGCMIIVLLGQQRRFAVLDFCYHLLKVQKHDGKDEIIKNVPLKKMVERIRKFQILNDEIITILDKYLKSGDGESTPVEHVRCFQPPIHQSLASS

Experiments:
Test in all cases: co-IP
[1] = molecular target: EGFP-Sra1 ΔM #1 (Sra1^Y986A/E988A) (murine) (UniProt Q7TMB8)
EGFP-Sra1 (WT) (murine) = EGFP-Sra1 (WT) (murine) (UniProt Q7TMB8)
[2] = molecular target: EGFP-Sra1 ΔM #2 (Sra1^Y948A/T951A) (murine) (UniProt Q7TMB8)
[3] = molecular target: EGFP-Sra1 ΔD (Sra1^Y967A) (murine) (UniProt Q7TMB8)

Measured: binding

B1: Nap1 (endogenous, B16-F1) (protein, UniProt P28660 1-1128)
chain: MSRSVLQPSQQKLAEKLTILNDRGVGMLTRLYNIKKACGDPKAKPSYLIDKNLESAVKFIVRKFPAVETRNNNQQLAQLQKEKSEILKNLALYYFTFVDVMEFKDHVCDLLNTIDVCQVFFDITVNFDLTKNYLDLTVTYTTLMILLSRIEERKAIIGLYNYAHEMTHGASDREYPRLGQMIVDYENPLKKMMEEFVPHSKSLSDALISLQMVYPRRNLSADQWRNAQLLSLISAPSTMLNPAQSDTMPCEYLSLDAMEKWIIFGFILCHGMLNTEATALNLWKLALQSSSCLSLFRDEVFHIHKAAEDLFVNIRGYNKRINDIRECKEAAVSHAGSMHRERRKFLRSALKELATVLSDQPGLLGPKALFVFMALSFARDEIIWLLRHADNMPKKSADDFIDKHIAELIFYMEELRAHVRKYGPVMQRYYVQYLSGFDAVVLNELVQNLSVCPEDESIIMSSFVNTMTSLSVKQVEDGEVFDFRGMRLDWFRLQAYTSVSKASLSLADHRELGKMMNTIIFHTKMVDSLVEMLVETSDLSIFCFYSRAFEKMFQQCLELPSQSRYSIAFPLLCTHFMSCTHELCPEERHHIGDRSLSLCNMFLDEMAKQARNLITDICTEQCTLSDQLLPKHCAKTISQAVNKKSKKQTGKKGEPEREKPGVESMRKNRLVVTNLDKLHTALSELCFSINYVPNMAVWEHTFTPREYLTSHLEIRFTKSIVGMTMYNQATQEIAKPSELLTSVRAYMTVLQSIENYVQIDITRVFNNVLLQQTQHLDSHGEPTITSLYTNWYLETLLRQVSNGHIAYFPAMKAFVNLPTENELTFNAEEYSDISEMRSLSELLGPYGMKFLSESLMWHISSQVAELKKLVVENVDVLTQMRTSFDKPDQMAALFKRLSSVDSVLKRMTIIGVILSFRSLAQEALRDVLSYHIPFLVSSIEDFKDHIPRETDMKVAMNVYELSSAAGLPCEIDPALVVALSSQKSENISPEEEYKIACLLMVFVAVSLPTLASNVMSQYSPAIEGHCNNIHCLAKAINQIAAALFTIHKGSIEDRLKEFLALASSSLLKIGQETDKTTTRNRESVYLLLDMIVQESPFLTMDLLESCFPYVLLRNAYHAVYKQSVTSSA
binds: all assays above
